For 23 molecules, T/C and survivor count results are on record in PubChem BioAssay AID328 (DTP/NCI, 2004).

For this assay, the system named is BDF1 mice, P388 leukemia ip, median survival T/C. The experiment in a line: NCI In Vivo Anticancer Drug Screen. Data for tumor model P388 Leukemia (intraperitoneal) in B6D2F1 (BDF1) mice. As to conditions: T/C endpoint: median survival time, higher T/C = longer survival. The method in brief: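 Steps: implant the tumour, treat one group with compound and another with vehicle, record survival, then divide treated by control.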

The mark [1] stands for this setting: dose: 50.0 mg/kg/injection, schedule: Q01DX009 (ip), vehicle: Klucel (hydroxypropylcellulose) (HPC).
[2] abbreviates: dose: 12.5 mg/kg/injection, schedule: Q01DX009 (ip), vehicle: saline.
[3] abbreviates: dose: 100.0 mg/kg/injection, schedule: Q01DX009 (ip), vehicle: Klucel (hydroxypropylcellulose) (HPC).
The mark [4] stands for this setting: dose: 200.0 mg/kg/injection, schedule: Q01DX009 (ip), vehicle: Klucel (hydroxypropylcellulose) (HPC).

Each structure is given as a SMILES string. The list does not hold the whole screen: it is rich in T/C values a quarter to a half above the control, in often repeated tests (any T/C) and in doses without a T/C. Other doses and runs of a compound stand elsewhere. T/C is the treated group as % of the vehicle group. Some doses have a count of surviving animals in place of a T/C: the source holds a T/C of zero for them, seemingly a mark for toxic or unscored doses. Some doses without a T/C left all or most animals alive at the check, yet need not have been tolerated: the source hardly ever lists a survival T/C far under the control, and the zero likely stands for such cases as well. Survivors were counted at the toxicity check, usually on the fifth day, unless a day is given; later deaths do not show. Schedules are NCI's codes, taken here to give the interval after Q, in days (D) or hours (H), and the number of doses after X. Some entries were tested several times; the values are given in rising order. Where survival is the endpoint, the PubChem record calls one and a half times the control and up active, and a quarter to a half above the control has no call in these data; cut-offs in other NCI protocols can differ.

As for `C[n+]1cccc2c3ccccc3c(-c3ccccc3)cc21`, the T/C runs as follows: (dose: 0.78 mg/kg/injection, schedule: Q01DX009 (ip), vehicle: water) 128 % of control; (dose: 12.5 mg/kg/injection, schedule: Q01DX009 (ip), vehicle: water) 137 % of control. Besides, the survivor count is given as 5 of 6 (dose: 25.0 mg/kg/injection, schedule: Q01DX009 (ip), vehicle: water); 0 of 6 (dose: 50.0 mg/kg/injection, schedule: Q01DX009 (ip), vehicle: water); 0 of 6 (dose: 50.0 mg/kg/injection, schedule: Q04DX003 (ip), vehicle: water); 0 of 6 (dose: 100.0 mg/kg/injection, schedule: Q01DX009 (ip), vehicle: water).
As for `CC(C)(C)OC(=O)NC(CCC(=O)O)(Cc1ccccc1)C(=O)NC(CCC(=O)O)(Cc1ccccc1)C(=O)OCc1ccccc1` (stereo not drawn), the survivor count (dose: 50.0 mg/kg/injection, schedule: Q01DX005 (ip), vehicle: saline with Tween-80) is listed as 4 of 5 and the survivor count (dose: 100.0 mg/kg/injection, schedule: Q01DX005 (ip), vehicle: saline with Tween-80) is listed as 5 of 5.
As to `C=CC[n+]1cccc2ccccc21`, the survivor count under setting [1] was 6 of 6.
As for `COc1cccc2c1C(=O)c1c(O)c3c(c(O)c1C2=O)C[C@@](O)(C(=O)O)C[C@@H]3OC1CC(N)C(O)C(C)O1` (stereo partly drawn), the T/C (dose: 6.25 mg/kg/injection, schedule: Q01DX009 (ip), vehicle: water) was 142 % of control.
On to `Cc1nc(C)c(Br)s1`, for which, where the note is “dose: 200.0 mg/kg/injection, schedule: Q01DX009 (ip), vehicle: saline with Tween-80”, the survivor count is 3 of 6.
For the molecule `O=C(Nc1cccc2ccccc12)C(F)(F)F`, the survivor count reads like this: (dose: 200.0 mg/kg/injection, schedule: Q04DX003 (ip), vehicle: saline with Tween-80) 3 of 6; (dose: 400.0 mg/kg/injection, schedule: Q04DX003 (ip), vehicle: saline with Tween-80) 0 of 6.
For `C=CC1CCCCC1C=C` (stereo not drawn), under setting [2], the survivor count is given as 6 of 6.
With `C/C(=N\Nc1nc2ccccc2o1)c1ccncc1`, the survivor count (dose: 100.0 mg/kg/injection, schedule: Q04DX003 (ip), vehicle: Klucel (hydroxypropylcellulose) (HPC)) is 6 of 6.
With `COc1cc2c(c(OC)c1OC)-c1ccc(OC)c(=O)cc1[C@@H](NC(C)=O)CC2`, the T/C by setting is: (dose: 0.06 mg/kg/injection, schedule: Q01DX009 (ip), vehicle: water) 146 % of control; (dose: 0.08 mg/kg/injection, schedule: Q01DX010 (ip), vehicle: saline) 136 % of control; (dose: 63.0 micrograms/kg/injection, schedule: Q01DX009 (ip), vehicle: saline) 130 % of control; (dose: 125.0 micrograms/kg/injection, schedule: Q01DX009 (ip), vehicle: saline) 141 % of control. Moreover, the survivor count runs as follows: (dose: 0.5 mg/kg/injection, schedule: Q01DX009 (ip), vehicle: water) 6 of 6; (dose: 1.0 mg/kg/injection, schedule: Q01DX009 (ip), vehicle: water) 2 of 6.
As for `CCN(CC)CCCNC(C)CCCN(CC)CC` (stereo not drawn), the survivor count reads like this: (dose: 200.0 mg/kg/injection, schedule: Q01DX009 (ip), vehicle: water) 3 of 6; (dose: 400.0 mg/kg/injection, schedule: Q01DX009 (ip), vehicle: water) 0 of 6; (dose: 400.0 mg/kg/injection, schedule: Q04DX003 (ip), vehicle: water) 3 of 6.
As for `O=C(O)CCC(=O)Nc1cccc(Oc2ccc([N+](=O)[O-])cc2[N+](=O)[O-])c1`, under setting [3], the survivor count was 6 of 6.
In the case of `COc1cccc(NN)c1`, the survivor count is, setting by setting: (dose: 100.0 mg/kg/injection, schedule: Q01DX009 (ip), vehicle: saline) 6 of 6; (dose: 200.0 mg/kg/injection, schedule: Q04DX003 (ip), vehicle: saline) 5 of 6.
On to `O=[N+]([O-])c1ccc(N/N=C/CCl)c([N+](=O)[O-])c1`, for which the T/C was 127 % of control (dose: 11.0 mg/kg/injection, schedule: Q04DX003 (ip), vehicle: saline with Tween-80); 130 % of control (dose: 25.0 mg/kg/injection, schedule: Q04DX003 (ip), vehicle: saline with Tween-80); 140 % of control (dose: 37.5 mg/kg/injection, schedule: Q04DX003 (ip), vehicle: saline with Tween-80).
Consider `C=C(C)C(=O)OC1C2C(=C)C(=O)OC2CC(C)C2OC2C(=O)C(C)(O)C1OC(=O)C(=C)C` (stereo not drawn), for which the survivor count reads like this: (dose: 100.0 mg/kg/injection, schedule: Q04DX002 (ip), vehicle: Klucel (hydroxypropylcellulose) (HPC)) 2 of 6; (dose: 200.0 mg/kg/injection, schedule: Q04DX002 (ip), vehicle: Klucel (hydroxypropylcellulose) (HPC)) 0 of 6; (dose: 400.0 mg/kg/injection, schedule: Q04DX002 (ip), vehicle: Klucel (hydroxypropylcellulose) (HPC)) 0 of 6.
Consider `CCOC(=O)/C=C(/C)Sc1cc(O)c2ccccc2c1O`, for which, for the setting “dose: 6.25 mg/kg/injection, schedule: Q01DX009 (ip), vehicle: saline with Tween-80”, the T/C was 130 % of control.
For the molecule `CC(=O)O[C@H]1CC[C@H]2[C@@H]3CC[C@H]4CC=C(C#N)C[C@]4(C)[C@H]3CC[C@]12C`, the survivor count is 6 of 6 (dose: 3.0 mg/kg/injection, schedule: Q01DX009 (ip), vehicle: Klucel (hydroxypropylcellulose) (HPC)); 6 of 6 (dose: 12.0 mg/kg/injection, schedule: Q01DX009 (ip), vehicle: Klucel (hydroxypropylcellulose) (HPC)); 5 of 6 under setting [1]; 6 of 6 under setting [3]; 6 of 6 under setting [4]; 5 of 6 and 6 of 6 (dose: 400.0 mg/kg/injection, schedule: Q01DX009 (ip), vehicle: Klucel (hydroxypropylcellulose) (HPC)).
For `C=C(C)C(=O)O[C@H]1C[C@@]23O[C@@H]2CCC(=C[C@H]2OC(=O)C(=C)[C@H]12)COC3O` (stereo partly drawn), the survivor count (dose: 37.5 mg/kg/injection, schedule: Q01DX009 (ip), vehicle: saline) is reported as 3 of 6 and the survivor count (dose: 75.0 mg/kg/injection, schedule: Q04DX003 (ip), vehicle: saline) is given as 1 of 6.
For the molecule `CCCCCCCCCCCCCCCCNCCO`, the survivor count under setting [4] was 6 of 6.
Take `COC(=O)C12Oc3ccc(-c4ccc5c(c4O)C(O)=C4C(=O)CC(C)C(O)C4(C(=O)OC)O5)c(O)c3C(O)=C1C(=O)CC(C)C2O` (stereo not drawn): the T/C (dose: 1.56 mg/kg/injection, schedule: Q01DX009 (ip), vehicle: saline) is 133 % of control.
On to `C=CC(=O)O`, for which the survivor count by setting is: (dose: 3.3 mg/kg/injection, schedule: Q01DX001 (ip), vehicle: Klucel (hydroxypropylcellulose) (HPC)) 3 of 6; (dose: 6.6 mg/kg/injection, schedule: Q01DX001 (ip), vehicle: Klucel (hydroxypropylcellulose) (HPC)) 1 of 6; (dose: 10.0 mg/kg/injection, schedule: Q04DX003 (ip), vehicle: Klucel (hydroxypropylcellulose) (HPC)) 3 of 6; (dose: 12.0 mg/kg/injection, schedule: Q01DX009 (ip), vehicle: saline) 1 of 6; (dose: 15.0 mg/kg/injection, schedule: Q04DX003 (ip), vehicle: Klucel (hydroxypropylcellulose) (HPC)) 2 of 6.
With `CCCCCCCCCCCC[N+](CC)(CC)CC(=O)O`, the T/C runs as follows: under setting [2], 126 % of control; (dose: 25.0 mg/kg/injection, schedule: Q01DX009 (ip), vehicle: saline) 126 % of control; (dose: 50.0 mg/kg/injection, schedule: Q01DX009 (ip), vehicle: saline) 142 % of control. Also, the survivor count (dose: 75.0 mg/kg/injection, schedule: Q01DX009 (ip), vehicle: saline) is 3 of 6.
On to `Nc1nc(C=O)c(Cc2ccc(Br)cc2)c(=O)[nH]1`, for which the T/C is 125 and 134 % of control (dose: 100.0 mg/kg/injection, schedule: Q01DX009 (ip), vehicle: saline with Tween-80); 132 % of control (dose: 150.0 mg/kg/injection, schedule: Q01DX009 (ip), vehicle: saline with Tween-80).
On to `CC1(C)CN(Cc2ccccc2)C(C)(C)CN1`, for which the survivor count was 3 of 6 (dose: 12.5 mg/kg/injection, schedule: Q01DX009 (ip), vehicle: saline with Tween-80); 0 of 6 (dose: 25.0 mg/kg/injection, schedule: Q01DX009 (ip), vehicle: saline with Tween-80); 1 of 6 (dose: 50.0 mg/kg/injection, schedule: Q04DX003 (ip), vehicle: saline with Tween-80).
